Measurements as given in PubChem BioAssay AID328 (DTP/NCI, 2004).
The list does not hold the whole screen: it is rich in T/C values a quarter to a half above the control, in often repeated tests (any T/C) and in doses without a T/C. Other doses and runs of a compound stand elsewhere. T/C gives the treated animals as a percentage of the vehicle group. Some doses have a count of surviving animals in place of a T/C: the source files T/C as zero there, which appears to mark a toxic dose or a test without result, not a measured value. Some doses without a T/C left all or most animals alive at the check, yet need not have been tolerated: the source hardly ever lists a survival T/C far under the control, and the zero likely stands for such cases as well. Counts of survivors are from the toxicity check (mostly the fifth day) where no day follows; animals may have died later. Schedules are NCI's codes, read here as Q, the interval in days (D) or hours (H), X, the number of doses. For survival time, the PubChem record calls one and a half times the control and up active, and a quarter to a half above the control has no call in these data; cut-offs in other NCI protocols can differ. Some doses were run more than once; the results are listed from low to high. Some T/C values are followed by the survivors on the day toxicity was checked, most often the fifth; where none is given, no animal had died by that day.

System: BDF1 mice, P388 leukemia ip, median survival T/C
Assay: NCI In Vivo Anticancer Drug Screen. Data for tumor model P388 Leukemia (intraperitoneal) in B6D2F1 (BDF1) mice
Conditions: T/C endpoint: median survival time, higher T/C = longer survival
Method: The antitumor activity of compounds was measured in mice bearing transplantable tumors. Survival or tumor size were measured and the results are expressed as the measurement made in the treated group (T) divided by the measurement made in the vehicle treated control group (C). The tumor model used in this assay is P388 Leukemia (intraperitoneal) in B6D2F1 (BDF1) mice

[1] = dose: 200.0 mg/kg/injection, schedule: Q04DX003 (ip), vehicle: Klucel (hydroxypropylcellulose) (HPC)
[2] = dose: 200.0 mg/kg/injection, schedule: Q04DX003 (ip), vehicle: saline
[3] = dose: 400.0 mg/kg/injection, schedule: Q01DX009 (ip), vehicle: Klucel (hydroxypropylcellulose) (HPC)
[4] = dose: 100.0 mg/kg/injection, schedule: Q01DX009 (ip), vehicle: other
[5] = dose: 200.0 mg/kg/injection, schedule: Q01DX009 (ip), vehicle: other
[6] = dose: 400.0 mg/kg/injection, schedule: Q04DX003 (ip), vehicle: saline

In the case of `BrCc1ccc2c3c(ccc(CBr)c13)CC2`, the T/C (dose: 1.3 mg/kg/injection, schedule: Q04DX003 (ip), vehicle: saline) is reported as 136 % of control, the T/C (dose: 2.1 mg/kg/injection, schedule: Q04DX003 (ip), vehicle: saline) is reported as 145 % of control and the survivor count (dose: 2.4 mg/kg/injection, schedule: Q01DX009 (ip), vehicle: Klucel (hydroxypropylcellulose) (HPC)) is reported as 0 of 6. For the same compound, the survivor count (dose: 3.6 mg/kg/injection, schedule: Q01DX009 (ip), vehicle: Klucel (hydroxypropylcellulose) (HPC)) was 0 of 6, the T/C (dose: 4.8 mg/kg/injection, schedule: Q04DX003 (ip), vehicle: Klucel (hydroxypropylcellulose) (HPC)) was 130 % of control and the T/C (dose: 5.5 mg/kg/injection, schedule: Q01DX009 (ip), vehicle: Klucel (hydroxypropylcellulose) (HPC)) was 130 % of control. For the same compound, the T/C (dose: 7.2 mg/kg/injection, schedule: Q04DX003 (ip), vehicle: Klucel (hydroxypropylcellulose) (HPC)) was 140 % of control, the T/C (dose: 8.2 mg/kg/injection, schedule: Q01DX009 (ip), vehicle: Klucel (hydroxypropylcellulose) (HPC)) was 128 % of control and the T/C (dose: 11.0 mg/kg/injection, schedule: Q04DX003 (ip), vehicle: Klucel (hydroxypropylcellulose) (HPC)) was 145 % of control. For the same compound, the T/C (dose: 12.5 mg/kg/injection, schedule: Q01DX009 (ip), vehicle: Klucel (hydroxypropylcellulose) (HPC)) was 133 % of control, the T/C (dose: 25.0 mg/kg/injection, schedule: Q01DX009 (ip), vehicle: Klucel (hydroxypropylcellulose) (HPC)) was 132 % of control and the T/C (dose: 50.0 mg/kg/injection, schedule: Q01DX009 (ip), vehicle: Klucel (hydroxypropylcellulose) (HPC)) was 127 and 145 % of control. The T/C (dose: 132.0 mg/kg/injection, schedule: Q04DX003 (ip), vehicle: Klucel (hydroxypropylcellulose) (HPC)) was 129 and 145 % of control, the T/C (dose: 132.0 mg/kg/injection, schedule: Q04DX003 (ip), vehicle: saline) was 127 % of control and the survivor count (dose: 200.0 mg/kg/injection, schedule: Q01DX009 (ip), vehicle: Klucel (hydroxypropylcellulose) (HPC)) was 4 of 6. The T/C [1] was 140 % of control [5 of 6 alive], the survivor count [1] was 5 of 6 and the survivor count [2] was 6 of 6. For the same compound, the survivor count [3] was 1 of 6.

With `COc1cc(C(=O)CCC(=O)O)cc(OC)c1OC` the survivor count (dose: 100.0 mg/kg/injection, schedule: Q04DX003 (ip), vehicle: Klucel (hydroxypropylcellulose) (HPC)) was 6 of 6.

With `CCOC(=O)Nc1ccc2c(c1)/C(=N\NC(N)=S)c1ccccc1-2` the survivor count (dose: 1.5 mg/kg/injection, schedule: Q04DX003 (ip), vehicle: gum acacia) was 6 of 6, the survivor count (dose: 3.0 mg/kg/injection, schedule: Q01DX009 (ip), vehicle: gum acacia) was 6 of 6 and the survivor count (dose: 6.0 mg/kg/injection, schedule: Q01DX009 (ip), vehicle: gum acacia) was 6 of 6. The survivor count (dose: 12.5 mg/kg/injection, schedule: Q04DX003 (ip), vehicle: gum acacia) was 6 of 6, the survivor count (dose: 25.0 mg/kg/injection, schedule: Q04DX003 (ip), vehicle: gum acacia) was 6 of 6 and the survivor count (dose: 50.0 mg/kg/injection, schedule: Q01DX001 (ip), vehicle: Klucel (hydroxypropylcellulose) (HPC)) was 5 of 6. The survivor count (dose: 50.0 mg/kg/injection, schedule: Q04DX003 (ip), vehicle: gum acacia) was 6 of 6, the survivor count (dose: 100.0 mg/kg/injection, schedule: Q01DX001 (ip), vehicle: Klucel (hydroxypropylcellulose) (HPC)) was 6 of 6 and the survivor count (dose: 100.0 mg/kg/injection, schedule: Q04DX003 (ip), vehicle: gum acacia) was 6 of 6. The survivor count (dose: 200.0 mg/kg/injection, schedule: Q04DX003 (ip), vehicle: gum acacia) was 6 of 6 and the survivor count [3] was 6 of 6.

`COc1cc2c(c(OC)c1OC)-c1ccc(O)cc1[C@@H](NC(C)=O)CC2` was tested, and the survivor count (dose: 17.5 mg/kg/injection, schedule: Q01DX010 (ip), vehicle: other) was 6 of 6 and the survivor count (dose: 35.0 mg/kg/injection, schedule: Q01DX010 (ip), vehicle: other) was 6 of 6.

In the case of `CCO/C=C/C=C1C(=O)N(C)C(=O)N(C)C1=O`, the T/C [4] is reported as 125 % of control and the T/C [5] is reported as 130 % of control.

`O=C(O)CCCCc1ccc(CCCCC(=O)O)cc1` was tested, and the T/C (dose: 75.0 mg/kg/injection, schedule: Q04DX003 (ip), vehicle: Klucel (hydroxypropylcellulose) (HPC)) was 130 % of control, the survivor count (dose: 150.0 mg/kg/injection, schedule: Q01DX009 (ip), vehicle: Klucel (hydroxypropylcellulose) (HPC)) was 6 of 6 and the survivor count (dose: 225.0 mg/kg/injection, schedule: Q01DX009 (ip), vehicle: Klucel (hydroxypropylcellulose) (HPC)) was 6 of 6. For the same compound, the survivor count (dose: 300.0 mg/kg/injection, schedule: Q04DX003 (ip), vehicle: Klucel (hydroxypropylcellulose) (HPC)) was 0 of 6.

For `CCCCCCCCCCCCCCCCS(=O)(=O)NN`, the survivor count [4] was 4 of 6 and the survivor count [5] was 1 of 6.

For `COc1cc(C(=O)OC2CC34CCNC35CC(OC5(OC)C2O)c2cc3c(cc24)OCO3)ccc1O` (stereo unspecified), the survivor count (dose: 2.0 mg/kg/injection, schedule: Q01DX010 (ip), vehicle: carboxymethylcellulose (CMC)) was 5 of 6, the survivor count (dose: 4.0 mg/kg/injection, schedule: Q01DX010 (ip), vehicle: carboxymethylcellulose (CMC)) was 6 of 6 and the survivor count (dose: 8.0 mg/kg/injection, schedule: Q01DX010 (ip), vehicle: carboxymethylcellulose (CMC)) was 2 of 6.

`O=C(Nc1ccc(NC2=NCCN2)cc1)c1cccc(C(=O)Nc2ccc(NC3=NCCN3)cc2)c1` was tested, and the T/C (dose: 8.0 mg/kg/injection, schedule: Q01DX009 (ip), vehicle: saline with Tween-80) was 129 % of control, the T/C (dose: 13.2 mg/kg/injection, schedule: Q01DX009 (ip), vehicle: saline with Tween-80) was 125 % of control and the T/C (dose: 20.0 mg/kg/injection, schedule: Q01DX009 (ip), vehicle: saline with Tween-80) was 140 % of control. The survivor count (dose: 100.0 mg/kg/injection, schedule: Q04DX003 (ip), vehicle: saline) was 0 of 6, the survivor count [2] was 0 of 6 and the survivor count [6] was 0 of 6.

With `CCC[P+](c1ccccc1)(c1ccccc1)c1ccccc1` the T/C (dose: 16.0 mg/kg/injection, schedule: Q01DX009 (ip), vehicle: saline) was 145 % of control, the T/C (dose: 25.0 mg/kg/injection, schedule: Q01DX009 (ip), vehicle: saline) was 141 % of control and the survivor count (dose: 37.5 mg/kg/injection, schedule: Q01DX009 (ip), vehicle: saline) was 6 of 6.

For `CC1=CC(C(O)C(C)C)C(C)(Cc2ccc(C)cn2)NC1c1ccccc1` (stereo unspecified), the survivor count (dose: 100.0 mg/kg/injection, schedule: Q04DX003 (ip), vehicle: saline with Tween-80) was 0 of 6, the survivor count (dose: 200.0 mg/kg/injection, schedule: Q04DX003 (ip), vehicle: saline with Tween-80) was 0 of 6 and the survivor count (dose: 400.0 mg/kg/injection, schedule: Q04DX003 (ip), vehicle: saline with Tween-80) was 0 of 6.

With `c1cc2cnc3cccc4cnc(c1)c2c43` the survivor count (dose: 200.0 mg/kg/injection, schedule: Q01DX001 (ip), vehicle: saline sonified) was 5 of 6.

With `Cc1nc2nc(C(F)(F)F)[nH]c2nc1C` the survivor count (dose: 400.0 mg/kg/injection, schedule: Q01DX009 (ip), vehicle: saline with Tween-80) was 6 of 6.

For `O=[N+]([O-])CC(O)c1ccc2ccccc2n1` (stereo unspecified), the survivor count (dose: 200.0 mg/kg/injection, schedule: Q01DX009 (ip), vehicle: saline) was 3 of 6 and the survivor count [6] was 0 of 6.

For `c1cc[n+](CCSCCSCC[n+]2ccccc2)cc1`, the T/C (dose: 4.6 mg/kg/injection, schedule: Q04DX003 (ip), vehicle: saline) was 127 % of control, the survivor count (dose: 6.9 mg/kg/injection, schedule: Q04DX003 (ip), vehicle: saline) was 3 of 6 and the survivor count (dose: 14.0 mg/kg/injection, schedule: Q01DX009 (ip), vehicle: saline) was 4 of 6. For the same compound, the survivor count (dose: 20.0 mg/kg/injection, schedule: Q04DX003 (ip), vehicle: saline) was 0 of 6, the survivor count (dose: 21.0 mg/kg/injection, schedule: Q01DX009 (ip), vehicle: saline) was 0 of 6 and the survivor count (dose: 30.0 mg/kg/injection, schedule: Q04DX003 (ip), vehicle: saline) was 1 of 6.
